Assay results taken from PubChem BioAssay AID2685 (National Center for Advancing Translational Sciences (NCATS), 2010).
The other results are listed elsewhere or left out. Further columns of the screen follow, without active or inactive calls. Compounds called inactive in the main read-out are mostly missing here. Words in brackets tell the shape of the fitted curve; partial curves, single points and poor fits give uncertain potencies.

Experiment: qHTS Assay for Lipid Storage Modulators in Drosophila S3 Cells;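 as to cell number change: cells counted by Cell Tracker Red CMTPX staining in the red channel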
Conditions: BODIPY lipid droplet fluorescence, 18-24 h; for cell number change: measured here: cell count max response, cells fed with added oleic acid
How it was run: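 Drosophila S3 cells got compounds at several concentrations plus oleic acid (400 uM solution). Laser-scanning cytometry with 488 nm excitation read lipid droplets at 500-530 nm and cells at 575-640 nm. Percent activity was relative to 20 uM Triacsin C.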

[1] = measured here: cell number channel AC50, cells fed with added oleic acid
[2] = measured here: lipid fluorescence (Fed channel) AC50, cells fed with added oleic acid

Row | SMILES | cell number change [%] | AC50 [1] | AC50 [2]
1 | O=C1CN(c2cc(Cl)cc(Cl)c2)C(=O)CN1/N=C/c1cccnc1 | -47.6 | 25.9 µM [falling, single point] | –
2 | O=C(COC(=O)Cc1c[nH]c2ccccc12)NC1CCS(=O)(=O)C1 (stereo unspecified) | -8.5 | – | –
3 | COc1cc(/C=N\NC(=O)Cn2nnc3ccccc32)cc(OC)c1OC | 83.9 | 20.6 µM [rising, single point] | –
4 | O=C(CCN1C(=O)/C(=C/c2ccccc2)SC1=S)NNC(=O)c1cccnc1 | 37.6 | 2.31 µM [rising, full curve] | 18.4 µM [rising, partial curve]
5 | COC(=O)c1scc(C)c1NC(=O)C(Cl)c1ccccc1 (stereo unspecified) | 11 | 0.461 µM [rising, full curve, poor fit] | 0.00461 µM [rising, full curve, poor fit]
6 | O=C(Cn1c(C(=O)NCC2CCCO2)cc2sccc21)c1ccccc1 (stereo unspecified) | -66 | 32.6 µM [falling, partial curve] | 8.2 µM [falling, partial curve]
7 | CC1=C(C#N)C2(O)C(=O)c3ccccc3C2(O)N1 (stereo unspecified) | -46.1 | 0.082 µM [falling, full curve, poor fit] | –
8 | O=C(c1nnsc1S(=O)c1ccc(Cl)cc1)N1CCOCC1 (stereo unspecified) | -48 | 0.411 µM [falling, full curve] | 18.4 µM [falling, partial curve]
9 | CCOC(=O)c1c(-c2ncc(C(F)(F)F)cc2Cl)noc1C | -1.51 | 3.66 µM [falling, single point] | 5.8 µM [falling, partial curve]
10 | Cc1cc(OCC(=O)NC2CCCCC2)ccc1Cl | 34.3 | 16.4 µM [rising, single point] | 16.4 µM [rising, single point]
11 | COc1cccc(NC(=O)[C@@H]2CCCN2S(=O)(=O)c2cccc3cccnc23)c1 | 13.7 | – | 4.61 µM [rising, single point]
12 | Cc1cccc(NCc2ccc([N+](=O)[O-])s2)c1 | 10.5 | – | 20.6 µM [rising, single point]
13 | COc1ccc(-c2ccc(/C=N/NC(=O)Cc3nnc(N)s3)o2)cc1Cl | 12.5 | – | 6.51 µM [falling, single point]
14 | CC(C)[C@H](NC(=O)N1CCn2c1nc1ccccc12)C(=O)N[C@H](C(=O)O)c1ccccc1 | -3.88 | – | 1.16 µM [falling, full curve]
15 | COc1cc2nc(N(CCN(C)C)C(=O)c3ccc4ccccc4c3)sc2cc1OC | 179 | 23.1 µM [rising, single point] | 29.1 µM [falling, single point]
16 | CC1CCCC(NC(=O)CN2C(=O)NC(C)(c3ccccc3)C2=O)C1C (stereo unspecified) | 14 | – | –
17 | N/C(COc1ncn(-c2ccccc2)n1)=N\S(=O)(=O)c1ccccc1 | -2.87 | 0.731 µM [rising, partial curve, poor fit] | 0.731 µM [rising, partial curve, poor fit]
18 | O=C(COC(=O)c1n[nH]c(=O)c2ccccc12)NC1CCCCC1 | 32.1 | 0.0206 µM [rising, full curve, poor fit] | 0.0366 µM [rising, full curve, poor fit]
19 | CCCCN(C(=O)c1cccc(S(=O)(=O)N2CCN(C)CC2)c1)c1c(N)n(CC(C)C)c(=O)[nH]c1=O | – | 6.51 µM [falling, single point] | –
20 | O=c1[nH]nc(Cc2ccccn2)c2ccccc12 | 3.89 | – | –
21 | CCOC(=O)C1=C(C)N(C)C(C)=C(C(=O)OCC)C1c1ccccc1 | 23.9 | – | 25.9 µM [rising, partial curve, poor fit]
22 | O=C(COn1nnc2ccc(S(=O)(=O)N3CCOCC3)cc21)Nc1c(F)c(F)c(F)c(F)c1F | – | – | 0.58 µM [falling, single point]
23 | CC1(C)O[C@H]2OC([C@H](O)CON3C(=O)c4ccccc4C3=O)[C@H](O)[C@H]2O1 (stereo partly specified) | 0.171 | – | 0.731 µM [falling, full curve, poor fit]
24 | O=C(Nc1cccc(F)c1)C1CCCN(S(=O)(=O)c2cccc3cccnc23)C1 (stereo unspecified) | -17.5 | – | 29.1 µM [falling, single point]
25 | O=C(Cc1ccc([N+](=O)[O-])cc1)Nc1nnc(C2CC2)s1 | -3.22 | – | 8.2 µM [rising, partial curve, poor fit]
26 | Cc1ccccc1C(=O)Oc1ccccc1N1C(=O)C2CC=CCC2C1=O (stereo unspecified) | 61.1 | 16.4 µM [rising, single point] | –
27 | COc1cc(C(C)=O)ccc1OCC(=O)OCC(=O)c1cc(C)n(CC2CCCO2)c1C (stereo unspecified) | 13.2 | – | 5.8 µM [rising, partial curve, poor fit]

Row | SMILES | cell number change [%] | AC50 [1] | AC50 [2]
28 | Cc1ccc(C(=O)N2CC(C)OC(C)C2)c(Cl)c1 (stereo unspecified) | -110 | 16.4 µM [falling, partial curve] | –
29 | CN(c1ccc(C(=O)NCc2cccnc2)cc1)S(=O)(=O)c1ccc(Cl)cc1 | 12.3 | 2.91 µM [rising, partial curve] | –
30 | CCn1c(=O)c(=O)n(CC)c2cc(S(=O)(=O)N3CCc4ccccc43)ccc21 | 0.368 | – | 0.103 µM [falling, full curve, poor fit]
31 | CCOC(=O)c1c(NC(=O)c2cccs2)sc2c1CCCC2 | 56.7 | 5.8 µM [rising, full curve] | 0.58 µM [rising, single point]
32 | CCOc1ccc2cc(S(=O)(=O)n3ccnc3C)ccc2c1 | -8.98 | – | 0.103 µM [falling, full curve]
33 | C(=N\Nc1nc2ccccc2[nH]1)/c1ccc2c(c1)OCCO2 | -65.3 | 29.1 µM [falling, partial curve] | –
34 | C=CCN1c2ccccc2[C@]23C[C@@H](C(=O)OC)N(C(=O)CC(C)C)C2=NC(C(=O)OC)=C(C(=O)OC)[C@H]13 | -47.1 | 7.31 µM [falling, partial curve] | 6.51 µM [falling, full curve]
35 | Cc1ccc(N(CC(=O)NC2CCCCC2)C(=O)Cn2nnc(-c3ccc(C)o3)n2)cc1 | 12.3 | – | 29.1 µM [rising, single point]
36 | COc1ccc(N(CC(=O)NCc2ccco2)C(=O)CCC(=O)Nc2nccs2)c(OC)c1 | 16.5 | 0.206 µM [rising, full curve, poor fit] | –
37 | COCCCN1C(=O)C(=O)/C(=C(/O)c2ccc(OC(C)C)cc2)C1c1ccncc1 (stereo unspecified) | -3.14 | – | 0.517 µM [rising, full curve, poor fit]
38 | O=C(c1ccco1)N1CCN(C2CCCC2)CC1 | -18.6 | – | 1.46 µM [falling, full curve]
39 | O=C(c1cccc(N2C(=O)C3C4C=CC(C4)C3C2=O)c1)N1CCN(c2ccc(F)cc2)CC1 (stereo unspecified) | – | – | 6.51 µM [rising, partial curve, poor fit]
40 | O=C(NC(=S)Nc1nc(-c2cccc([N+](=O)[O-])c2)cs1)c1ccccc1Cl | -34.5 | 29.1 µM [falling, single point] | 29.1 µM [falling, single point]
41 | N#Cc1cccc(Cn2nnc(-c3ccccc3)n2)c1 | -9.51 | – | 32.6 µM [rising, single point]
42 | O=C(CSc1ncn[nH]1)c1cc2ccccc2o1 | – | 0.00461 µM [falling, full curve, poor fit] | 5.8 µM [falling, single point]
43 | CCN(CC)C(=O)NC1CC2CCCC(C1)N2Cc1ccccc1 (stereo unspecified) | -19.3 | – | 0.82 µM [falling, full curve, poor fit]
44 | Nc1nc(SCC(=O)c2cccc([N+](=O)[O-])c2)n[nH]1 | 23.1 | – | 10.3 µM [rising, partial curve]
45 | Cc1[nH][nH]c(=O)c1C | 20.2 | 0.146 µM [rising, full curve, poor fit] | 23.1 µM [rising, single point]
46 | C=CCn1c(NC(=O)c2ccccc2)nc2ccccc21 | -45.5 | 20.6 µM [falling, single point] | –
47 | COc1ccc(N=C2C(=O)N3c4c(cccc42)C(C)=CC3(C)C)cc1 | -32.8 | 10.3 µM [falling, partial curve, poor fit] | 13 µM [falling, single point]
48 | CC(=O)Nc1ccc(NC(=O)C(C)OC(=O)c2cccc(S(=O)(=O)N3CCCC3)c2)cc1 (stereo unspecified) | -10.9 | – | 11.6 µM [falling, single point]
49 | Cc1cc(C)c(S(C)(=O)=O)c(S(=O)(=O)c2ccc(Cl)cc2)n1 | 7.47 | – | 0.731 µM [rising, full curve, poor fit]
50 | c1ccc(CCNc2ncnc3c2nnn3Cc2ccccc2)cc1 | 103 | 7.31 µM [rising, partial curve] | 2.06 µM [rising, partial curve]
51 | O=C(CNC(=O)c1ccccc1)OCc1cc(=O)n2cc(Br)ccc2n1 | 20 | – | 1.03 µM [rising, full curve, poor fit]
52 | CCCOc1ccc(C2c3c(oc4ccccc4c3=O)C(=O)N2CCN(CC)CC)cc1OC (stereo unspecified) | 36.6 | 2.06 µM [rising, full curve] | –
53 | CCCCN(C(=O)CC1CCCCC1)c1c(N)n(CC(C)C)c(=O)[nH]c1=O | -37 | 16.4 µM [falling, single point] | 18.4 µM [falling, single point]
